# Assay results from patent US9457045B2, “Combination of anti-clusterin oligonucleotide with Hsp90 inhibitor for the treatment of prostate cancer” (The University of British Columbia, priority 2011, dated 2016).
# Some of these results come from one statement about several compounds together. At least one compound was matched to its structure with a doubt left.
# Key:
# [1] = tested on: CLU; experiment: CLU protein expression by western blotting in PCa cells; assay type: cell-based, human; conditions: LNCaP and PC-3 cells; dose- and time-dependent
# [2] = tested on: Hsp70; experiment: Hsp70 protein expression by western blotting in PCa cells; assay type: cell-based, human; conditions: LNCaP and PC-3 cells; dose- and time-dependent
Structure (SMILES),increase of CLU protein levels [1],increase of Hsp70 protein levels [2]
"C=CCNC1=C2C[C@@H](C)C[C@H](OC)[C@H](O)[C@@H](C)/C=C(\C)[C@H](OC(N)=O)[C@@H](OC)/C=C\C=C(/C)C(=O)NC(=CC1=O)C2=O [Hsp90i-1, 17-allylamino-17-demethoxygeldanamycin]",up to 3 fold,up to 3 fold
"CC1(C)CC(=O)c2c(C(F)(F)F)nn(-c3ccc(C(N)=O)c(NC4CCC(O)CC4)c3)c2C1 (stereo not shown) [Hsp90i-2, 4-(6,6-Dimethyl-4-oxo-3-trifluoromethyl-4,5,6,7-tetrahydro-indazol-1-yl)-2-(4-hydroxy-cyclohexylamino)-benzamide]",up to 3 fold,up to 3 fold
